Consider 3 molecules from PMC6824681, “Phosphoproteomics reveals that the hVPS34 regulated SGK3 kinase specifically phosphorylates endosomal proteins including Syntaxin-7, Syntaxin-12, RFIP4 and WDR44” (Biochemical Journal, 2019).

For one assay, the target named is T1, GFP-STX12 S139A (human) (UniProt Q86Y82).
T1 sequence: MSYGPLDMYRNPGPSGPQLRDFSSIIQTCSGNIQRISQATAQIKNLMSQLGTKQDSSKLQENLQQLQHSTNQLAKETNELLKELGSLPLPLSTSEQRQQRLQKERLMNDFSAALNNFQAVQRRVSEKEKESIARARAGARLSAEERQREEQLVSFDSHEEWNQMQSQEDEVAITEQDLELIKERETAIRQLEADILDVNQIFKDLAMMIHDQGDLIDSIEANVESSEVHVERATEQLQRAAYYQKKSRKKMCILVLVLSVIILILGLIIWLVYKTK
Kind of assay: co-IP; GFP-STX12 WT or S139A immunoprecipitated from 2 mg lysate with GFP-Trap beads, 4°C, 4 h; two washes with lysis buffer with 0.45 M NaCl, one with 0.15 M NaCl; immunoblot of endogenous partners; cells serum-starved overnight, ± 14H (1 µM, 1 h), ± IGF1 (50 ng/ml, 15 min). (In general: A western blot detects proteins with antibodies after separation by electrophoresis.)

For assay [1], the target named is T2, GFP-STX12 wild type (Syntaxin-12) (human, UniProt Q86Y82 1-276).
T2 construct: Syntaxin-12 (STX12), human; After IGF1 stimulation about 20% of the stably expressed protein was phosphorylated (Ser139) by phos-tag analysis; also called GFP-STX12 WT; wild-type STX12
T2 sequence (looked up): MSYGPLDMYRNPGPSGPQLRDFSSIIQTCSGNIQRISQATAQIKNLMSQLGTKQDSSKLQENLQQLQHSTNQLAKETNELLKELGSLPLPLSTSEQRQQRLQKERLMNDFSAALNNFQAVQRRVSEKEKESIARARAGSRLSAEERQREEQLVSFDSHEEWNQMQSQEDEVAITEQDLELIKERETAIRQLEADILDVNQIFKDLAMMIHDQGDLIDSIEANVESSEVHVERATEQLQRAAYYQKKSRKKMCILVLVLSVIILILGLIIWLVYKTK
Described as above.

These are yes or no findings as the source states them, for the method shown. Binding seen in cells or lysates may run through a third protein. Some binding calls cover weakened binding; strength is not graded here. Tags and fused reporters may be left off the sequences shown.

B1: VAMP4 (natural protein, human (endogenous in HEK293), UniProt O75379 1-141, looked up)
chain: MPPKFKRHLNDDDVTGSVKSERRNLLEDDSDEEEDFFLRGPSGPRFGPRNDKIKHVQNQVDEVIDVMQENITKVIERGERLDELQDKSESLSDNATAFSNRSKQLRRQMWWRGCKIKAIMALVAAILLLVIIILIVMKYRT
notes: VAMP4, endogenous in HEK293 cells, detected by immunoblot with anti-VAMP4; also called v-SNARE protein VAMP4; source: endogenous, HEK293 lysate
For the molecule B1, the binding entry (in the assay with GFP-STX12 S139A (human); in assay [1]) was “binds” in each case.

B2: Syntaxin 6 (STX6) (natural protein, human (endogenous in HEK293), UniProt O43752 1-255, looked up)
chain: MSMEDPFFVVKGEVQKAVNTAQGLFQRWTELLQDPSTATREEIDWTTNELRNNLRSIEWDLEDLDETISIVEANPRKFNLDATELSIRKAFITSTRQVVRDMKDQMSTSSVQALAERKNRQALLGDSGSQNWSTGTTDKYGRLDRELQRANSHFIEEQQAQQQLIVEQQDEQLELVSGSIGVLKNMSQRIGGELEEQAVMLEDFSHELESTQSRLDNVMKKLAKVSHMTSDRRQWCAIAILFAVLLVVLILFLVL
notes: Syntaxin-6 (STX6), endogenous in HEK293 cells, detected by immunoblot with anti-STX6; source: endogenous, HEK293 lysate
B2: the binding entry (in the assay with GFP-STX12 S139A (human); in assay [1]) was “binds” each time.

B3: VTI1A (natural protein, human (endogenous in HEK293), UniProt Q96AJ9 1-217, looked up)
chain: MSSDFEGYEQDFAVLTAEITSKIARVPRLPPDEKKQMVANVEKQLEEAKELLEQMDLEVREIPPQSRGMYSNRMRSYKQEMGKLETDFKRSRIAYSDEVRNELLGDDGNSSENQRAHLLDNTERLERSSRRLEAGYQIAVETEQIGQEMLENLSHDREKIQRARERLRETDANLGKSSRILTGMLRRIIQNRILLVILGIIVVITILMAITFSVRRH
notes: Vti1a (VTI1A), endogenous in HEK293 cells, detected by immunoblot with anti-VTI1A; source: endogenous, HEK293 lysate
For B3, the binding result (with GFP-STX12 S139A (human); in assay [1]) was “binds” throughout.
